According to paper doi:10.1101/2024.01.11.575193, “Structure and function of the Si3 insertion integrated into the trigger loop/helix of cyanobacterial RNA polymerase” (bioRxiv, 2024):
No constants are given. Whether binding was seen depends on the method and setting. Some entries that bind do so weakly or less than the wild type. One block for each binder: values may come before it.

Sequences of proteins named here, by UniProt entry; tags and fusion partners are left off. A change or cut given only in a name is not applied to a line headed by its entry.
UniProt Q31L30: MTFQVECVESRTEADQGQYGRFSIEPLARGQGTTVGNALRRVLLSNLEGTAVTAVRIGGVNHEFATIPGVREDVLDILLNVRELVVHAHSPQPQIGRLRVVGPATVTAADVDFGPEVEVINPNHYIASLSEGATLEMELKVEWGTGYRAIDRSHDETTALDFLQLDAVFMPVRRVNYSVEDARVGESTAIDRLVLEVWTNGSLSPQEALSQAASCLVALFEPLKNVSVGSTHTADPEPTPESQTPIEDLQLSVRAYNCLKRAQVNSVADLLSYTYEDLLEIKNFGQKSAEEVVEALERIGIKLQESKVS
UniProt P42079: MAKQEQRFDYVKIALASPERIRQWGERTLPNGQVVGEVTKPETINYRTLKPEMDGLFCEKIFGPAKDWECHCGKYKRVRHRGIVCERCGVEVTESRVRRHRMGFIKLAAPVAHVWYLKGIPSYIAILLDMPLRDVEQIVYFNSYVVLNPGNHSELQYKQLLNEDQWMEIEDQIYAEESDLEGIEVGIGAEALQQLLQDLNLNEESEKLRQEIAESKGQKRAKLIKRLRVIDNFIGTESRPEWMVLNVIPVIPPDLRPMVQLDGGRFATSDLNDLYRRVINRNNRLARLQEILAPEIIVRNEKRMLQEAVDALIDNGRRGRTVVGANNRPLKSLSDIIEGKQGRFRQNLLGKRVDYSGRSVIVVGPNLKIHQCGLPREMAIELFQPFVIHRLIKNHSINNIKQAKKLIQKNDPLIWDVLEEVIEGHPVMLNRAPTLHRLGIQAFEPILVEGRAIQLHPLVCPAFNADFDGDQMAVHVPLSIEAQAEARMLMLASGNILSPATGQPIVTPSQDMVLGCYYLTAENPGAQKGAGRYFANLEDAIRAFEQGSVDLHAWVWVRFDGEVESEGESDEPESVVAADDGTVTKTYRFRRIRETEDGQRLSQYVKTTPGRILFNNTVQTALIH
UniProt Q31MH9: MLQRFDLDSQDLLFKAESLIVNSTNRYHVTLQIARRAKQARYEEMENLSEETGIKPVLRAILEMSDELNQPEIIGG

Key:
[1] = target: T1, Synechococcus elongatus RNA polymerase core enzyme (wild type) (Synechococcus elongatus PCC 7942) (UniProt Q31L30+Q31N17+P42079+Q31N15+Q31MH9); experiment: cryo-EM structure; iNTP-bound EC-NusG: EC with NusG plus 1 mM 3'-deoxyATP and CTP, 5 min at 37 °C; 2.79 Å; both purified
[2] = target: T2, β'2 subunit of Synechococcus elongatus RNA polymerase (Synechococcus elongatus PCC 7942) (UniProt Q31N15); experiment: cryo-EM structure; iNTP-free EC-NusG: 5 μM cyRNAP with DNA/RNA scaffold, then 7 μM NusG, 37 °C, storage buffer, CHAPSO added before vitrification; 3 Å; both purified
T2 sequence: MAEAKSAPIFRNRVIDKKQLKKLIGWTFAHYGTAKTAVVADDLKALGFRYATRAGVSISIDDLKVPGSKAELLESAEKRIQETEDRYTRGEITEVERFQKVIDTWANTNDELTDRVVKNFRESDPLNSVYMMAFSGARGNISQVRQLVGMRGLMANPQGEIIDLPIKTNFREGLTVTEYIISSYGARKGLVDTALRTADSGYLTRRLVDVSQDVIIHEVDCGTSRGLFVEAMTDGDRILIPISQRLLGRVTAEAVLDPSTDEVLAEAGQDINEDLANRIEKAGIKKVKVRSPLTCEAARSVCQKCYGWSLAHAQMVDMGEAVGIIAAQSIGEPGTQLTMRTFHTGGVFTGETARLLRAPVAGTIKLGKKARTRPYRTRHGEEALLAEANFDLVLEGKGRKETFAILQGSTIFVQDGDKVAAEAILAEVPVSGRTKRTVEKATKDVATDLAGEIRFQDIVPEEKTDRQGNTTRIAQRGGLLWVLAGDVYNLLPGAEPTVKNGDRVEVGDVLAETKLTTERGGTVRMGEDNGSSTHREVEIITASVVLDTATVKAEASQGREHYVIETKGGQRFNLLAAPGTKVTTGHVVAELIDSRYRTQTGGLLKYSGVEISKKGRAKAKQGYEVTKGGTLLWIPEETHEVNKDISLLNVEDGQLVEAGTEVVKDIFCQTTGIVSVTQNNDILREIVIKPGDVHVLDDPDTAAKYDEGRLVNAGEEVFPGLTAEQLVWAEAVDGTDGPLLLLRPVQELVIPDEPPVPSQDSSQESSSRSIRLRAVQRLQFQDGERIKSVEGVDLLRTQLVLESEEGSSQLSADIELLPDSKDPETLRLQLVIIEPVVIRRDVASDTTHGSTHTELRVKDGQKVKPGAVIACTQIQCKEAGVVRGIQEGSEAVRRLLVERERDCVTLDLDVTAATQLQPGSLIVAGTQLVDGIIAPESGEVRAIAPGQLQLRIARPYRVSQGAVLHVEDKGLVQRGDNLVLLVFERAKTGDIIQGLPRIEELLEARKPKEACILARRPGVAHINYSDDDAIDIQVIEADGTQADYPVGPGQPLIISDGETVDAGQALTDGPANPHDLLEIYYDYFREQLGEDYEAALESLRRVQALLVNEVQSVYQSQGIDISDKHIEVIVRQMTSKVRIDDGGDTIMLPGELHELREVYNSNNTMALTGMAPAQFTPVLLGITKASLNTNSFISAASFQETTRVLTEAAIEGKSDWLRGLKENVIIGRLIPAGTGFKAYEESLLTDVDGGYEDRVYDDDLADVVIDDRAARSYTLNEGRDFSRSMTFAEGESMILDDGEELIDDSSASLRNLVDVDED

[3] = target: T1, Synechococcus elongatus RNA polymerase core enzyme (wild type) (Synechococcus elongatus PCC 7942); experiment: as above
[4] = target: T3, β subunit of Synechococcus elongatus RNA polymerase (Synechococcus elongatus PCC 7942) (UniProt Q31N17); experiment: as above
T3 sequence: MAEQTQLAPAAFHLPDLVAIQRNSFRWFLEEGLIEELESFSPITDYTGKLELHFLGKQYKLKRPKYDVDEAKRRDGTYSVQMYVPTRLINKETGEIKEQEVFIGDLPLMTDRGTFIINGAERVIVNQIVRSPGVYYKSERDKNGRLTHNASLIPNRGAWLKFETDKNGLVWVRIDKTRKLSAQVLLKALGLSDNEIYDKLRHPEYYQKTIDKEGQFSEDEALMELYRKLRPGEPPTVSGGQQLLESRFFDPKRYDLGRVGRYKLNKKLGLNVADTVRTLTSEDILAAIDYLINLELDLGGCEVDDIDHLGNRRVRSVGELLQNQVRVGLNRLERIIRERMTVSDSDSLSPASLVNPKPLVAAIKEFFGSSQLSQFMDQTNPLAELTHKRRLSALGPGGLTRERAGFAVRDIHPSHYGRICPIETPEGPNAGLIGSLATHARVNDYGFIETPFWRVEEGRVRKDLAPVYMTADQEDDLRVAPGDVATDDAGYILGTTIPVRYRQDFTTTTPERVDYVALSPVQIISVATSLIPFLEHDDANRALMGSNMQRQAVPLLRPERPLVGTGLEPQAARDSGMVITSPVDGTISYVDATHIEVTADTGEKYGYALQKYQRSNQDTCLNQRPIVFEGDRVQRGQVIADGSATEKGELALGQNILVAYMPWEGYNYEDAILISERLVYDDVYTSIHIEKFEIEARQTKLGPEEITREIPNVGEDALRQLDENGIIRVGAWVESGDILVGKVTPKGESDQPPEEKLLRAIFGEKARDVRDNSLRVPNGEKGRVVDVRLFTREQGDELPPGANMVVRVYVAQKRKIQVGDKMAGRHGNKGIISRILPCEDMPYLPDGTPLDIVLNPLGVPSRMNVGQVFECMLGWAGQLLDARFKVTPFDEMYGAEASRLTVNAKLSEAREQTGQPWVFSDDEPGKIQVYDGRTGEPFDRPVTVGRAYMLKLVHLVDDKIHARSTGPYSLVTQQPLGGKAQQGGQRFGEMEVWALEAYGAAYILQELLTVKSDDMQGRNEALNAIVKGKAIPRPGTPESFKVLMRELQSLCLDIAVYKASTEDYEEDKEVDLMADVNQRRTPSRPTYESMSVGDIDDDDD

binding [1]: binds
binding [2]: binds weakly
binding [3]: binds
B1: Synechococcus elongatus NusG (protein, UniProt Q31QK2 1-205)
chain: MTDQYEEQLLSADDSVASEKARWYAVQVASGCEKRVKATLEQRVQTLDAANRILQVEIPETPIVKLKKDGSRQSAEEKVFPGYVLVRMILDDDAWQIVRNTPHVINFVGAEQKRPYGRGRGHVKPMPLSPGEVGRIFKRAQEQKPTVKIDLAEGDQILVLSGPFKDFEGTVIEVSPERSKLKALLSIFGRDTPVELEFNQVQKQN

binding [4]: binds
B2: β'2 subunit of Synechococcus elongatus RNA polymerase (protein, UniProt Q31N15 1-1318)
chain: T2 sequence
